Experimental data taken from PubChem BioAssay AID601 (SRMLSC, 2007).
The list shows a part of the results. Some results for these compounds are left out of this collection, so the calls shown say nothing about other tests.

Experiment: MRP1 drug-resistance reversers in H69AR cells – cell-based, doxorubicin co-treatment, pilot screen (AID 601)
Details: H69AR cells + 2 uM doxorubicin, CellTiter-Glo, 72 h; measured here: viability with 2 uM doxorubicin; at 10 µM; stronger effect = lower value

| Compound | viability [%] |
| --- | --- |
| O=C(OC1CN2CCC1CC2)C(CO)(c1ccccc1)c1ccccc1 (stereo unspecified) | 77.7 |
